About 6,100 (1.1%) of roughly 580,000 compounds were called active. Inconclusive results, whose numbers are uncertain, are shown with a selection of clear calls. Calls come from the whole dose curve; as a rule, active = well fitted inhibition curve with a large enough effect; inconclusive = small, poorly fitted or top-dose-only effect, or another doubt; inactive = no such curve, though single readings can be large or run the other way. Potencies beside an inconclusive call are fits to weak or partial responses and may not hold up.
target: Polyunsaturated fatty acid lipoxygenase ALOX12 (Homo sapiens) (UniProt P18054); experiment: Primary qHTS assay for inhibitors of human arachidonate 12S-lipoxygenase (ALOX12): Round 2; settings: purified 12hLO, xylenol orange hydroperoxide absorbance; activity change, negative = inhibition: at 108 µM (top of the series) unless noted
Method in brief: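 Purified human 12hLO (150 nM final) in 25 mM Hepes, 0.01% Triton X-100, pH 7.0 was preincubated 15 min at room temperature with compound. Then 40 uM arachidonic acid was added, 30 min. Hydroperoxide was read by Fe-XO absorbance ratio 573/405 nm.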
% is set by controls: 0 for no effect and ±100 for the full control effect; potency is the fitted concentration of half-maximal effect.

Amino acid sequences for entries named in this document (tags omitted). A change or cut given only in a name is not applied to a line headed by its entry.
UniProt P18054: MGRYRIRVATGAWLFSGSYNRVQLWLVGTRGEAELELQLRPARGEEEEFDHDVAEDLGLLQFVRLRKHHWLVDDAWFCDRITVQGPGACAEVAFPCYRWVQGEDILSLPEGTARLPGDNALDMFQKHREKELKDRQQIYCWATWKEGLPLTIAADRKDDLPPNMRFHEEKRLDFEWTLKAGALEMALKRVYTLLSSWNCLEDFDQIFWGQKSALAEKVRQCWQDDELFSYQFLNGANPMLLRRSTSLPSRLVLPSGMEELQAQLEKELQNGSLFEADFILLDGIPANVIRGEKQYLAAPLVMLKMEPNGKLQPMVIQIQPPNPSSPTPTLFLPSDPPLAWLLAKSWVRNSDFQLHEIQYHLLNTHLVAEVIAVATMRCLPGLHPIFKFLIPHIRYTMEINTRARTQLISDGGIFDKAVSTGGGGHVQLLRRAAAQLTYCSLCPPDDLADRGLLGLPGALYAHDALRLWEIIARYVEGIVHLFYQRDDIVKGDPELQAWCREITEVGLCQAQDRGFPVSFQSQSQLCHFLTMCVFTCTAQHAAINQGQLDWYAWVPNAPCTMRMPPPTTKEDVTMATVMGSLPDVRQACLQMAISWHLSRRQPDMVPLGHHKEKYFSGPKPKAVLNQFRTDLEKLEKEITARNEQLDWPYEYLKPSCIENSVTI

SMILES | Potency | activity change, negative = inhibition
CN(C)CCNC(=O)/C(=C/c1ccc(-c2ccc(Cl)cc2)o1)NC(=O)c1ccccc1 | inconclusive: 50.1 µM [inhibitor, partial curve, poor fit] | 
CC(=O)NC(=O)COC(=O)c1ccc2ncsc2c1 |  | inactive: 0%
COc1ccc(-c2nc(NC(=O)c3ccco3)sc2C)cc1 | inconclusive: 35.5 µM [inhibitor, partial curve] | 
COc1ccc(C(=O)N2CC[C@H](c3nnc(-c4ccccc4OC)o3)C2)cc1OC |  | inactive: -7.83% [at 176 µM]
CC(C)C(=O)N(c1ccc2oc(=O)sc2c1)S(=O)(=O)c1cccs1 | inconclusive: 20 µM [inhibitor, partial curve, poor fit] | 
CC(COc1ccc(Br)cc1)CN1CCC(C(O)(c2ccccc2)c2ccccc2)CC1 (stereo unspecified) | inconclusive: 79.4 µM [inhibitor, partial curve, poor fit] | 
CCN1CC(c2ccccc2)CC2(CCN(C(=O)Nc3ccccc3)CC2)C1 (stereo unspecified) |  | inactive: 10.7%
CC(C)c1nc2c(c(-c3ccc(O)cc3)n1)CCN(CC1CCCCC1)CC2 |  | inactive: 10.8%
CS(=O)(=O)N1CCC(c2nnc3n2C(C(=O)O)CC3)CC1 (stereo unspecified) | inconclusive: 39.8 µM [inhibitor, partial curve, poor fit] | 
O=C(c1ccc(C(=O)N2CCOCC2)nc1)N1CCOCC1 | inconclusive: 25.1 µM [inhibitor, partial curve, poor fit] | 
COCc1ccc(C(=O)NCC(C)c2ccccc2)cc1 (stereo unspecified) |  | inactive: 18.4%
O=[N+]([O-])c1cccc(NC(=S)NCCc2ccccc2)c1 | inconclusive: 44.7 µM [inhibitor, partial curve, poor fit] | 
Cc1ccc(-c2nc3ccccc3s2)cc1NC(=S)NC(=O)c1cccc2ccccc12 | inconclusive: 1.78 µM [inhibitor, full curve, poor fit] | 
Cn1nccc1C(=O)N1CCCN(CCc2ccccc2)c2ccccc21 | inconclusive: 39.8 µM [inhibitor, partial curve] | 
Cc1ccc(O)c(C(=O)c2cnn(-c3ccccc3)c2)c1 | inconclusive: 2 µM [inhibitor, full curve, poor fit] | 
COc1ccc(C(=O)NCCn2cc(SCC(=O)Nc3cccc(C)c3)c3ccccc32)cc1 |  | inactive: -5.86%
CC(C(=O)NCc1ccc(OC(F)(F)F)cc1)C1CCOCC1 (stereo unspecified) | inconclusive: 10 µM [inhibitor, partial curve] | 
CCOC(=O)C1CCN(S(=O)(=O)c2ccc3c(c2)CC(C)N3C(=O)C2CC2)CC1 (stereo unspecified) |  | inactive: 3%
CCn1c(=O)c2ccccc2n(CC(=O)Nc2ccc(-c3cccc(C(F)(F)F)c3)cc2)c1=O |  | inactive: -57.7%
Cc1cc(N2CCCCC2)nc2ccc(NC(=O)c3ccc(Br)o3)cc12 |  | inactive: 42.2%
O=C(CCNC(=O)c1ccccc1Cl)NN1C(=O)NC2(CCCCC2)C1=O | inconclusive: 35.5 µM [inhibitor, partial curve, poor fit] | 
Cc1ccc(NS(=O)(=O)c2ccc(CCC(=O)NCc3cccnc3)cc2)cc1 | inconclusive: 126 µM [inhibitor, single point] | 

SMILES | Potency | activity change, negative = inhibition
CCN(CC)S(=O)(=O)c1ccc(NC(=O)c2cccs2)cc1 | inconclusive: 0.398 µM [inhibitor, full curve, poor fit] | 
CCOc1ccc(OCCC(=O)OCC(=O)Nc2ccc(N3CCOCC3)cc2)cc1 | inconclusive: 112 µM [inhibitor, single point] | 
Cc1ccc(C)c(OCCC(=O)OCC(=O)NC2CCCC2)c1 |  | inactive: 21.4%
Cc1ccc(Cn2c(C3CCN(C(=O)c4cc(Cl)ccc4F)CC3)n[nH]c2=O)cc1 | inconclusive: 39.8 µM [inhibitor, partial curve] | 
CN(C)c1ccc(CN2CCC(N3CCCCCC3=O)CC2)cc1 | inconclusive: 35.5 µM [inhibitor, full curve] | 
O=C(CSc1ccsc1[N+](=O)[O-])Nc1cccc(F)c1 | inconclusive: 50.1 µM [inhibitor, partial curve, poor fit] | 
COc1ccc(/C=C/C(=O)Nc2cc(C(F)(F)F)ccc2Cl)cc1OC |  | inactive: -21.8%
CN(C)Cc1cc(C[C@@H]2CC[C@H](O)[C@@H](CNC(=O)N3CCOCC3)O2)no1 | inconclusive: 8.91 µM [inhibitor, full curve] | 
Cc1cc(C(=O)OCC(=O)Nc2cccc3ccccc23)c2ccccc2n1 |  | inactive: -37.6%
COc1ccc(NC(=S)NCCc2c[nH]c3ccccc23)cc1 | active: 50.1 µM | 
COCc1nnc(NC(=O)Cn2nc3c(cc2=O)CCCCC3)s1 | inconclusive: 8.91 µM [inhibitor, full curve] | 
CCn1nnc(NC(=O)CSc2ccc(Cl)cc2)n1 | inconclusive: 28.2 µM [inhibitor, partial curve, poor fit] | 
Cc1cccc(CC(=O)N2CCC[C@H](n3c(=O)n(Cc4ccccc4)c4cccnc43)C2)c1 |  | inactive: 8.31%
CC(C)Sc1nc(NCc2ccco2)c2c3c(sc2n1)COC(C)(C)C3 | inconclusive: 44.7 µM [inhibitor, partial curve, poor fit] | 
CCOC(=O)c1c(C)n(CCOc2ccccc2)c2ccc(O)cc12 | inconclusive: 50.1 µM [inhibitor, partial curve, poor fit] | 
CCCCSc1nc2c(c(=O)n(C)c(=O)n2C)n1Cc1ccc(Cl)cc1 | inconclusive: 35.5 µM [inhibitor, partial curve, poor fit] | 
CC(C)c1ccc(CC(=O)N2CCCc3ncc(C(=O)Nc4cccc(Cl)c4)cc32)cc1 | inconclusive: 6.31 µM [inhibitor, full curve] | 
COc1ccc(CCNCCN2CCOCC2)cc1 | inconclusive: 79.4 µM [inhibitor, single point] | 
Nc1cccc(-c2cc3ccccn3c2)c1 | inconclusive: 44.7 µM [inhibitor, partial curve, poor fit] | 
Cc1ccc(CNC(=O)Cc2ccsc2)cc1 | inconclusive: 126 µM [inhibitor, single point] | 
COc1ccc(C(=O)N(C)[C@H]2C[C@H]3c4[nH]c5ccccc5c4CCN3C(=O)[C@H]2CO)cc1 | inconclusive: 141 µM [inhibitor, single point] | 
Cc1cccc(-n2ncc3c(Nc4ccc(Oc5ccc(Cl)cc5)cc4)ncnc32)c1 | inconclusive: 100 µM [inhibitor, partial curve, poor fit] | 

Entries shown so far that contain bromine:
SMILES | Potency | activity change, negative = inhibition
CC(COc1ccc(Br)cc1)CN1CCC(C(O)(c2ccccc2)c2ccccc2)CC1 (stereo unspecified) | inconclusive: 79.4 µM [inhibitor, partial curve, poor fit] | 
Cc1cc(N2CCCCC2)nc2ccc(NC(=O)c3ccc(Br)o3)cc12 |  | inactive: 42.2%

A few values from the entries so far:
Potency with Cc1ccc(-c2nc3ccccc3s2)cc1NC(=S)NC(=O)c1cccc2ccccc12 is entered as inconclusive: 1.78 µM [inhibitor, full curve, poor fit]
Potency with O=C(CCNC(=O)c1ccccc1Cl)NN1C(=O)NC2(CCCCC2)C1=O is entered as inconclusive: 35.5 µM [inhibitor, partial curve, poor fit]

Additional entries

SMILES | Potency | activity change, negative = inhibition
Cc1ncsc1C(=O)NCc1cccs1 |  | inconclusive: -38.7% [inhibitor]
COc1ccccc1NC(=O)c1cnc(SCC(=O)NCCc2ccccc2)n(C)c1=O | inconclusive: 100 µM [inhibitor, single point] | 
Cc1ccc(-c2c[nH]c(=S)n2-c2ccccc2)cc1 | inconclusive: 50.1 µM [inhibitor, partial curve, poor fit] | 
CCOc1ccccc1CN1CCC2(CCN(C(=O)C3CC3)CC2)Oc2ccccc21 | inconclusive: 79.4 µM [inhibitor, partial curve] | 
COc1ccccc1CN=Cc1[nH]c2ccc(Br)c(Cl)c2c1O | inconclusive: 31.6 µM [inhibitor, partial curve, poor fit] | 
Cc1ccn2c(Nc3ccccc3C)c(-c3ccccn3)nc2c1 | inconclusive: 100 µM [inhibitor, partial curve, poor fit] | 
CCN(Cc1ccccc1)C(=O)c1nc(-c2cccc(F)c2)n2c1CCCCC2 |  | inactive: -5.81%
O=C(NC(=S)Nc1cc(-c2nc3ccccc3[nH]2)ccc1Cl)c1ccc2c(c1)OCO2 | inconclusive: 44.7 µM [inhibitor, partial curve, poor fit] | 
FC(F)Sc1ccc(NC(=S)NC2CCC(NC(=S)Nc3ccc(SC(F)F)cc3)CC2)cc1 (stereo unspecified) | inconclusive: 3.98 µM [inhibitor, single point] | 
Cc1ccc(N(Cc2cc3ccc(C)cc3[nH]c2=O)C(=O)c2ccco2)cc1 |  | inconclusive: -30% [inhibitor]
O=C1NC(Cc2ccc(O)cc2)c2nc3ccc(F)cc3c(=O)n2-c2cc3ccccc3cc21 (stereo unspecified) | inconclusive: 1 µM [inhibitor, full curve, poor fit] | 
Cc1ccccc1NC(=S)/C(=C(\[O-])c1ccc(C)c([N+](=O)[O-])c1)[n+]1ccccc1 |  | inactive: -20.6%
CCOP(=O)(O)c1ccccc1OCCCCCOc1ccccc1P(=O)(O)OCC |  | inactive: -10.5%
CCCN(CC)c1ccc(/C=N/NC(=S)Nc2cccc(C)c2)cc1 | inconclusive: 44.7 µM [inhibitor, partial curve, poor fit] | 
COc1cc(-c2noc(C)c2C(=O)NCCc2c[nH]c3ccccc23)cc(OC)c1OC | inconclusive: 39.8 µM [inhibitor, partial curve, poor fit] | 
O=C(CCCCCCCC(=O)Nc1ccc(C(=O)c2ccccc2)cc1)Nc1ccc(C(=O)c2ccccc2)cc1 | active: 39.8 µM | 
COc1cccc(-c2cc(C(=O)NCCCN3CCOCC3)c3ccccc3n2)c1 |  | inactive: -19.6%
C/C(=N\Nc1ccccc1Cl)c1ccc(-n2ccnc2)cc1 | inconclusive: 44.7 µM [inhibitor, partial curve, poor fit] | 
CCCn1c2ccc(C)cc2c2n[nH]c(=S)nc21 |  | inactive: -0.818%
O=c1[nH][nH]c2c1[C@H](c1ccc(Cl)cc1)O[C@H](CCc1ccccc1)C2 | inconclusive: 100 µM [inhibitor, single point] | 
CN1N=C(C(F)(F)F)CC1=O | inconclusive: 39.8 µM [inhibitor, partial curve, poor fit] | 
COc1ccc(CN2C[C@@H](CO)O[C@@H](n3cnc4c(N5CCCC5)ncnc43)C2)cc1 |  | inactive: -3.17%

Source: PubChem BioAssay AID1671190 (National Center for Advancing Translational Sciences (NCATS), 2021)
